The values that follow are results of earlier work, collected in patent US20150217046A1, “DOSING REGIMENS FOR SUBCUTANEOUSLY INFUSIBLE ACIDIC COMPOSITIONS” (SynAgile Corporation, priority 2012, published 2015).

SMILES strings stand for the structures. Like-named read-outs stand apart in the source and are kept apart here.

The conditions of this data set: cited from earlier work.

For the compound `N[C@@H](Cc1ccc(O)c(O)c1)C(=O)O` [levodopa], the plasma half-life entry is on record as “about 10^2 minutes” (patients receiving also an inhibitor of L-DOPA decarboxylase) and “approximately 90 minutes” (with co-administered CD).
